The source of these data is PubChem BioAssay AID445 (National Center for Advancing Translational Sciences (NCATS), 2006).

The list shows a part of the results. These are further read-outs of the screen, such as a control signal, another cell line or another target. No call is given for them. The list favours compounds with an active or inconclusive main result. Words in brackets tell the shape of the fitted curve; partial curves, single points and poor fits give uncertain potencies.

This test can be described thus: IkB Signaling. To be noted: ABC-DLBCL IkBa-CBG/CBR dual luciferase ratio (green luciferase fused to IkBa over red control in OCI-Ly3 lymphoma cells), 4 h; measured here: control luc red channel unless noted. The essentials: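 In this assay, an IκBα–CBG68 fusion accumulates when IKK-driven degradation is blocked; native CBR normalizes for cell number. OCI-Ly3 cells were treated 4 h with compound and doxycycline, then green and red light read after Chroma-Glo addition.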
Take `Fc1ccccc1OCCSc1nnnn1-c1ccccc1`: the AC50 is 15.8 µM [falling, partial curve].
With `COc1ccccc1N1CCN(C(=O)Cn2ncc3c2-c2cc(C)ccc2OC3)CC1`, the AC50 was 31.6 µM [falling, single point].
As to `COC(=O)c1cc(NC(=O)Cc2coc3cc(OC)ccc23)cc(C(=O)OC)c1`, the AC50 is 10 µM [falling, partial curve].
Take `COc1cccc(-c2nc(CS(=O)(=O)CC(=O)Nc3cccc(C(C)=O)c3)c(C)o2)c1`: the AC50 is 10 µM [falling, partial curve].
Consider `COc1cc(CN(C(=O)c2ccc(OC(C)C)cc2)c2ccccn2)cc(OC)c1OC`, for which the AC50 was 25.1 µM [falling, single point].
Consider `Cc1cc(Nc2nc3ccccc3c3nnc(C)n23)ccc1Br`, for which the AC50 was 0.00501 µM [rising, full curve, poor fit].
The result for `Cc1[nH]nc(-c2ccc(O)cc2O)c1-c1ccc(Cl)cc1` reads 12.6 µM [falling, partial curve].
Regarding `Cc1cc(C)cc(NC(=O)CSc2c(C(C)C)cnc3c2c(=O)n(C)c(=O)n3C)c1`, the AC50 is 31.6 µM [falling, single point].
On to `Cc1cc(C)cc(Nc2cc(C(=O)NC3CCCCC3)c3ccccc3n2)c1`, for which the AC50 was 7.94 µM [rising, partial curve].
In the case of `CCOC(=O)c1ccccc1NC(=O)CSc1nnc(CC)n2c1cc1occc12`, the AC50 was 20 µM [falling, single point].
As to `COc1ccc(C)cc1NC(=O)c1cc(S(=O)(=O)N2CCC(C)CC2)ccc1F`, the AC50 was 15.8 µM [falling, partial curve, poor fit].
Turning to `CCCCc1ccc(C(=O)Nc2ccc3nc(N4CCN(CC)CC4)cc(C)c3c2)cc1`, the AC50 is 15.8 µM [falling, partial curve].
Take `O=C(CSc1nnc2ccccn12)c1ccccc1`: the AC50 was 3.16 µM [falling, full curve].
Consider `CCOC(=O)c1cc(C)n(CC2CCC(C(=O)Nc3ccc(OC)cc3)CC2)c1C` (stereo not drawn), for which the AC50 was 10 µM [falling, partial curve].
For the compound `CCc1ccccc1NC(=O)c1cc(-c2ccc(Cl)s2)nc2ccccc12`, the AC50 is 5.01 µM [falling, full curve, poor fit].
Turning to `Cc1oc(-c2ccccc2F)nc1Cn1c(SCc2cccc(C(F)(F)F)c2)nc2ccncc21`, the AC50 was 3.16 µM [falling, full curve, poor fit].
With `O=C(Nc1ccccc1F)c1cnc(N2CCCCC2)c2ccccc12`, the AC50 was 1 µM [rising, full curve, poor fit].
`COc1ccccc1-c1nnc(C2CCN(C(=O)c3ccccc3C)CC2)o1`: the AC50 was 0.2 µM [falling, partial curve, poor fit].
Regarding `COc1ccc(N(CC(=O)Nc2cc(OC)cc(OC)c2)S(=O)(=O)c2c(C)noc2C)cc1`, the AC50 was 10 µM [falling, partial curve].
Consider `Cc1cccc(-n2c(C)cc(C(=O)C(=O)Nc3nncs3)c2C)c1`, for which the AC50 was 10 µM [falling, partial curve].
In the case of `Cc1ccc(O)c(NC(=O)CCS(=O)(=O)c2nc(-c3cccs3)cc(C(F)(F)F)n2)c1`, the AC50 is 3.16 µM [falling, full curve].
As for `Cc1ccc(C(C)C)c(OCC(=O)Nc2cc(-c3nc4ccccc4[nH]3)ccc2C)c1`, the AC50 is 10 µM [falling, full curve].
As to `CCn1nc(C)c2c(-c3ccccc3)cc(=O)n(C(C)C(=O)Nc3ccc(OC)c(OC)c3)c21` (stereo not drawn), the AC50 is 10 µM [rising, partial curve].
With `CCOC(=O)c1ccccc1NC(=O)CN(c1ccccc1)S(=O)(=O)c1ccc(OCC)cc1`, the AC50 is 10 µM [falling, partial curve].
In the case of `Cn1c(N2CCN(C(=O)NCc3ccccc3)CC2)nc2ccccc21`, the AC50 was 25.1 µM [falling, partial curve].
As for `Cc1ccc(CNC(=O)c2cn(C3CCCCC3)c(=O)c3c2c2ccccc2n3C)o1`, the AC50 is 12.6 µM [falling, partial curve].
`Cc1cc(C)cc(NC(=O)Cn2nnc(-c3ccccc3F)n2)c1`: the AC50 was 0.00631 µM [rising, full curve, poor fit].
Regarding `O=C(CCc1cn(Cc2ccc(F)cc2)c2ccccc12)NC1CCCCC1`, the AC50 was 6.31 µM [falling, full curve].
On to `CCOC(=O)N1CCc2c(sc3c2c(=O)n(-c2ccc(CC)cc2)c(=O)n3Cc2cccc(Cl)c2)C1`, for which the AC50 was 12.6 µM [falling, partial curve].
Turning to `Cc1ccc(C)c(N2CCN(C(=O)C3CCC(CNS(=O)(=O)c4cccs4)CC3)CC2)c1` (stereo not drawn), the AC50 is 12.6 µM [falling, partial curve].
Turning to `OC(COc1c(Br)cc(Br)cc1Br)CN1CCOCC1` (stereo not drawn), the AC50 is 3.98 µM [falling, partial curve].
In the case of `CCn1cc(C(=O)OCC(=O)Nc2cc(Cl)ccc2C)c(=O)c2ccc(C)nc21`, the AC50 was 0.00631 µM [falling, full curve].
As to `Cc1ccc(NC(=O)CN2C(=O)C(c3ccc(F)cc3)=NC23CCCCCC3)c(C)c1`, the half-maximal activity concentration (AC50) was 25.1 µM [falling, single point].
To `O=C(NCCSc1c[nH]c2ccccc12)c1ccc(Cl)cc1` belongs 20 µM [falling, partial curve]; to `Cc1ccc(N2CC(NC(=O)CCCc3ccccc3)CC2=O)cc1` (stereo not drawn), 3.16 µM [falling, partial curve]; to `COc1cccc(C(c2nnnn2CCc2ccccc2)N2CCN(c3ccccc3)CC2)c1OC` (stereo not drawn), 12.6 µM [falling, partial curve].
As for `O=C(Cn1nc(Cc2cccnc2)c2ccccc2c1=O)N1CCN(c2ccccc2F)CC1`, the AC50 is 25.1 µM [falling, partial curve].
As to `COc1ccc(CNC(=O)c2ccc(CN3C(=O)C(C)=C(c4ccc(C)cc4)S3(=O)=O)cc2)cc1`, the AC50 is 6.31 µM [falling, partial curve].
As to `CCOC(=O)c1c(Nc2ccc(C)c(C)c2)nnc(-c2ccccc2)c1-c1ccccc1`, the AC50 is 12.6 µM [falling, partial curve].
On to `O=C(NCCc1ccccc1)c1c[nH]c2ccc(S(=O)(=O)Nc3ccc(F)cc3F)cc2c1=O`, for which the AC50 was 1.58 µM [rising, partial curve].
Regarding `CCOc1ccc(NC(=O)NCCN2CCN(c3cc(Cl)ccc3C)CC2)cc1`, the AC50 is 31.6 µM [falling, partial curve].
As for `COc1ccc(C(=O)CC2(O)C(=O)N(Cc3ccccc3)c3ccc(Br)cc32)cc1` (stereo not drawn), the AC50 is 20 µM [falling, partial curve].
As to `O=C(NCc1ccco1)C1CCN(c2nc3ccccc3n2Cc2ccc(F)cc2)CC1`, the AC50 is 15.8 µM [falling, partial curve].
In the case of `CCOC(=O)c1c(NC(=O)CSc2nnc(-c3cccnc3)o2)sc(C(C)=O)c1C`, the AC50 was 20 µM [falling, single point].
As for `CCCCOc1cccc(C(=O)N(Cc2cccs2)c2ccc(OC)cc2)c1`, the AC50 is 31.6 µM [falling, single point].
As for `CC(C)(C)c1ccc(-c2nc(SCC(=O)Nc3ccc(Cl)cc3)[nH]c(=O)c2C#N)cc1`, the AC50 is 20 µM [falling, partial curve].
For `CC(=O)NCCn1c(SCC(=O)Nc2ccc(C)cc2)nc2ccccc2c1=O`, the AC50 is 3.16 µM [rising, partial curve, poor fit].
As to `Cc1c(-c2ccc(Cl)cc2)c(=O)oc2ccc(OC(=O)N3CCOCC3)cc12`, the AC50 was 3.98 µM [rising, partial curve].
Take `COc1ccccc1CNC(=O)CC(c1ccc(OC)c(OC)c1)N1Cc2ccccc2C1=O` (stereo not drawn): the AC50 is 0.0158 µM [rising, full curve, poor fit].
Consider `CC1CCN(c2nc(-c3ccco3)c3c(c2C#N)CC(C)(C)OC3)CC1`, for which the AC50 was 10 µM [falling, partial curve].
Regarding `Cc1ccc(Cl)cc1-n1ncc2c(N3CCCCCC3)ncnc21`, the AC50 is 12.6 µM [falling, partial curve].
Take `Cc1ccccc1CN1C(=O)c2ccccc2Sc2ccc(C(=O)NC3CCCC3)cc21`: the AC50 is 25.1 µM [falling, single point].
To `CCCN(C(=O)CCc1nc(-c2ccc(OC)cc2)no1)c1ccccc1F` belongs 20 µM [falling, partial curve]; to `COc1cccc2cc(-c3nnc(Nc4c(F)cccc4F)s3)c(=O)oc12`, 0.0501 µM [falling, full curve]; to `COc1cc(-c2nc(Cn3nnc(C(=O)Nc4ccc(C)cc4C)c3C)c(C)o2)cc(OC)c1OC`, 3.98 µM [falling, full curve].
Take `Cc1oc(-c2ccccc2F)nc1CS(=O)(=O)CC(=O)NCCc1ccc(Cl)cc1`: the AC50 is 25.1 µM [falling, single point].
Regarding `COc1ccc(-n2nnnc2SCC(=O)c2cc3ccccc3o2)cc1`, the AC50 is 25.1 µM [falling, partial curve].
For the compound `COc1ccc(NC(=O)Cn2ncc3c2-c2ccccc2OC3)cc1Cl`, the AC50 is 20 µM [falling, single point].
The result for `O=C(CSc1nc2c([nH]c3ccccc32)c(=O)n1-c1ccccc1)Nc1ccc2c(c1)OCCO2` reads 0.126 µM [falling, full curve].
The result for `CCOC(=O)N1CCN(C(=O)CSCC(=O)Nc2nc(-c3ccccc3)cs2)CC1` reads 12.6 µM [falling, partial curve]; that for `Cc1ccc(C)c2sc(N3CCN(C(=O)C(C)(C)C)CC3)nc12`, 3.16 µM [rising, partial curve]; that for `CCN(CCCNC(=O)c1cc2c(Cl)nc3ccccc3c2s1)Cc1ccccc1`, 39.8 µM [falling, single point].
The result for `COc1ccc(CCNC(=O)Cn2ncc3c(=O)oc4ccccc4c32)c(OC)c1` reads 39.8 µM [falling, partial curve].
